Data taken from PMC7188212.
Results are given in words; binding and its absence hold for the method and conditions named.

Assays:
[1] = target: T1, Plasmodium falciparum Hsp70-Hsp90 organising protein (PfHop) (Plasmodium falciparum), Q8ILC1; test: SEC-MALS; Superdex S200 Increase 10/300 GL, buffer C (10 mM Tris-HCl pH 8, 300 mM NaCl, 5% glycerol, 0.2 mM TCEP), 100 μg PfHop injected, 0.5 ml/min; mini DAWN TREOS MALS detector; BSA and ovalbumin as molecular-weight controls; both purified; conditions: remark: other sources report otherwise
T1 chain: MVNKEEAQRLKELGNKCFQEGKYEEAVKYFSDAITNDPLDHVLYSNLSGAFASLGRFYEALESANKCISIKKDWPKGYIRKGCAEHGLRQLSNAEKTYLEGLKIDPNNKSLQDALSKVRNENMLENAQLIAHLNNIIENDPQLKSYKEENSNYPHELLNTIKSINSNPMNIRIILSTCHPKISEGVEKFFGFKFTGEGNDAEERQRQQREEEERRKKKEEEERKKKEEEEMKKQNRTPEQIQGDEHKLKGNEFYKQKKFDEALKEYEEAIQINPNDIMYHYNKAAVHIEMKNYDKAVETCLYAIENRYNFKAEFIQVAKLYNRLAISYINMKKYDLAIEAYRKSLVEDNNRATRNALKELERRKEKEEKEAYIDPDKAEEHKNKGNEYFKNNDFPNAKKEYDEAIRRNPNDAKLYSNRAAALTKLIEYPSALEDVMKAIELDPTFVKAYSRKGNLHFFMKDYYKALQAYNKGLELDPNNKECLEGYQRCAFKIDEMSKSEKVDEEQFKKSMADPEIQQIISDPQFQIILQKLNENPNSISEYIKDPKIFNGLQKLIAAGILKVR

[2] = target: T1, Plasmodium falciparum Hsp70-Hsp90 …; test: SEC; HiLoad 16/600 Superdex 200 pg, buffer C (10 mM Tris-HCl pH 8, 300 mM NaCl, 5% glycerol, 0.2 mM TCEP); reducing conditions; fractions analysed by SDS-PAGE; both purified; conditions: remark: other sources report otherwise

binding [2]: no binding
B1: Plasmodium falciparum Hsp70-Hsp90 organising protein (PfHop), Q8ILC1 1-564 (protein)
chain: MVNKEEAQRLKELGNKCFQEGKYEEAVKYFSDAITNDPLDHVLYSNLSGAFASLGRFYEALESANKCISIKKDWPKGYIRKGCAEHGLRQLSNAEKTYLEGLKIDPNNKSLQDALSKVRNENMLENAQLIAHLNNIIENDPQLKSYKEENSNYPHELLNTIKSINSNPMNIRIILSTCHPKISEGVEKFFGFKFTGEGNDAEERQRQQREEEERRKKKEEEERKKKEEEEMKKQNRTPEQIQGDEHKLKGNEFYKQKKFDEALKEYEEAIQINPNDIMYHYNKAAVHIEMKNYDKAVETCLYAIENRYNFKAEFIQVAKLYNRLAISYINMKKYDLAIEAYRKSLVEDNNRATRNALKELERRKEKEEKEAYIDPDKAEEHKNKGNEYFKNNDFPNAKKEYDEAIRRNPNDAKLYSNRAAALTKLIEYPSALEDVMKAIELDPTFVKAYSRKGNLHFFMKDYYKALQAYNKGLELDPNNKECLEGYQRCAFKIDEMSKSEKVDEEQFKKSMADPEIQQIISDPQFQIILQKLNENPNSISEYIKDPKIFNGLQKLIAAGILKVR
binding [1]: no binding (tested: 100 μg of PfHop injected)
